Laboratory results reported in the supplement of paper PMC12823440, “Inhibitors supercharge kinase turnover through native proteolytic circuits” (Nature, 2025).
Counter-ions that a name gives are not always drawn. Some of the results follow. Hit calls seldom repeat between salt and free forms of one compound.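 Kinases, fused to nanoluciferase, were expressed in K562 cells; luminescence was measured every 4 h from 2 to 18 h as percent of control (DMSO = 100%, positive control = 0%). A time point is decreased if signal falls significantly (2 sigma). Hits were called by the authors by a rule that is not shown; the count of time points alone does not decide it.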

The chains behind the UniProt entries cited, without tags or fusion partners. Where a name states a change or a piece, a line headed by the entry shows the natural chain unless it says otherwise.
UniProt P50613: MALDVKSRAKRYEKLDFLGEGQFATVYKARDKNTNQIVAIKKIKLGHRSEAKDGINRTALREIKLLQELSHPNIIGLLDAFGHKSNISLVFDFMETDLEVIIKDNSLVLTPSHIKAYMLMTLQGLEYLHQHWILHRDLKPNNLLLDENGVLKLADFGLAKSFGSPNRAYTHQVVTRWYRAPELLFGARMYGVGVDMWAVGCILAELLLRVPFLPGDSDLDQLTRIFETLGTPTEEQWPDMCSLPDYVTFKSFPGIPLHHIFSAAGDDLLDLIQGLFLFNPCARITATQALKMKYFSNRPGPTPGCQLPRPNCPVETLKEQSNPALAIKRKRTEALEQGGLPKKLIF
UniProt P50750, whole entry: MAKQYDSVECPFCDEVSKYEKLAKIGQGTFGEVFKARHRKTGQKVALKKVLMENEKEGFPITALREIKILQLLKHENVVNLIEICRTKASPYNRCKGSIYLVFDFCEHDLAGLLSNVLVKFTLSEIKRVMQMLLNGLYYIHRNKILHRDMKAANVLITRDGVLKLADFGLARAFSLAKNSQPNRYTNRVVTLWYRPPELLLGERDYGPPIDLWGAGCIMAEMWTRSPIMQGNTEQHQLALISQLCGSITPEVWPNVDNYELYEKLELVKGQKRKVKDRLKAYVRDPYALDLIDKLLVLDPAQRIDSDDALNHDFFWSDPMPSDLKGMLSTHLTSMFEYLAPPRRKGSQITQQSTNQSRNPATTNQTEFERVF
UniProt P48729: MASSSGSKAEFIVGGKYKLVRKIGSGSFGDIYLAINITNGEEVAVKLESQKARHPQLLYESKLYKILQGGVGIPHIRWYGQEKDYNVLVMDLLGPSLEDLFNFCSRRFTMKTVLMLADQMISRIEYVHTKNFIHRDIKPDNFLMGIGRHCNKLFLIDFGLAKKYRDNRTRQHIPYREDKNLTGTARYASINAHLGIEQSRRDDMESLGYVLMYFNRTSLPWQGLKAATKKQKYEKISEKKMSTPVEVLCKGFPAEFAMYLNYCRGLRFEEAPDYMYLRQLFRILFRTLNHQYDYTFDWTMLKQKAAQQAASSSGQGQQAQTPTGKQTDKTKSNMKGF
UniProt Q9Y463, whole entry, looked up: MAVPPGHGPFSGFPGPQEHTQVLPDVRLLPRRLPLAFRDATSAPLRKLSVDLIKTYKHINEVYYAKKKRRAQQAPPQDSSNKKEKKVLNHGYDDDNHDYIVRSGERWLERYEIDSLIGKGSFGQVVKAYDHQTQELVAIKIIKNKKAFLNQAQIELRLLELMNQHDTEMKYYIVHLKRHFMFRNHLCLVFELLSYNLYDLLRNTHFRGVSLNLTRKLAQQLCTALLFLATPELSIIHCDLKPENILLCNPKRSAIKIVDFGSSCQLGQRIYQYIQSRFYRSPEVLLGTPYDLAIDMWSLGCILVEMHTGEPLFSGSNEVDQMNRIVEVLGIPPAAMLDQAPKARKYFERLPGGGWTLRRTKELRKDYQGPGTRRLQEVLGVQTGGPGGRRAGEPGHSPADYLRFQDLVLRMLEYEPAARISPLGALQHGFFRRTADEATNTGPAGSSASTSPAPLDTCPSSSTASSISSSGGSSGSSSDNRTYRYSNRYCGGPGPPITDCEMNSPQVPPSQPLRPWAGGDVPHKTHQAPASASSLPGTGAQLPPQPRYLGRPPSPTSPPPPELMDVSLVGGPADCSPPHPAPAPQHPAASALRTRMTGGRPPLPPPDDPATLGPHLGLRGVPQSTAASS
UniProt Q92630: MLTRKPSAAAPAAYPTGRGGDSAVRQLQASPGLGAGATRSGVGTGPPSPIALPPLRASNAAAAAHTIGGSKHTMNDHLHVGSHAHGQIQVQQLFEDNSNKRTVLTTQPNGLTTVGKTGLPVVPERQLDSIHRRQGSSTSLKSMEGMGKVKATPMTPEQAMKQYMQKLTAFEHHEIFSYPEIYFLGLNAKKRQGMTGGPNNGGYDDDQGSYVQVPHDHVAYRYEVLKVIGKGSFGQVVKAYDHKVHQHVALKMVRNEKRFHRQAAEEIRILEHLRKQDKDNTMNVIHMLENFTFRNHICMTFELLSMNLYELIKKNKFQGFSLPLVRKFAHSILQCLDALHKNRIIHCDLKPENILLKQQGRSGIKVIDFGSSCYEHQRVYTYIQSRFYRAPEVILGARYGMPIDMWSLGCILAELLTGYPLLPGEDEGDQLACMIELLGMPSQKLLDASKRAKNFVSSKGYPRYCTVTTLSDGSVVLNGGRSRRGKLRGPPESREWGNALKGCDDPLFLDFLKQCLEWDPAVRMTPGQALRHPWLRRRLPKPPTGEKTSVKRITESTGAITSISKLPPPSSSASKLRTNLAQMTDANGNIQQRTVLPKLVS
UniProt O96017, whole entry: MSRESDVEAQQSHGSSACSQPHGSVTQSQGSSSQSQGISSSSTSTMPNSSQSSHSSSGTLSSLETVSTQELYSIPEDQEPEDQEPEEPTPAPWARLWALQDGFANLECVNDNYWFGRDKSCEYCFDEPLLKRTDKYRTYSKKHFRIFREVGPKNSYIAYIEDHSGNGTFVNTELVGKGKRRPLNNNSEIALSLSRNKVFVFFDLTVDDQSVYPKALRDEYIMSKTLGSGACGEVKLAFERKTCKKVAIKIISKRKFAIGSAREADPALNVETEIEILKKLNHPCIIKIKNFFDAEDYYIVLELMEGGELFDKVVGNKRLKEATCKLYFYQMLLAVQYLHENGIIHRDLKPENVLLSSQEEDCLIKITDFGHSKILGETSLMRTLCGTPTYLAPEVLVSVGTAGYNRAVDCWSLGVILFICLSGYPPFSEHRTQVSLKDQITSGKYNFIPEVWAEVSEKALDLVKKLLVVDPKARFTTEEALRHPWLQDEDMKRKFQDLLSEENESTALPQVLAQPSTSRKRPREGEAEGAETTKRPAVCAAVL
UniProt P07333, whole entry: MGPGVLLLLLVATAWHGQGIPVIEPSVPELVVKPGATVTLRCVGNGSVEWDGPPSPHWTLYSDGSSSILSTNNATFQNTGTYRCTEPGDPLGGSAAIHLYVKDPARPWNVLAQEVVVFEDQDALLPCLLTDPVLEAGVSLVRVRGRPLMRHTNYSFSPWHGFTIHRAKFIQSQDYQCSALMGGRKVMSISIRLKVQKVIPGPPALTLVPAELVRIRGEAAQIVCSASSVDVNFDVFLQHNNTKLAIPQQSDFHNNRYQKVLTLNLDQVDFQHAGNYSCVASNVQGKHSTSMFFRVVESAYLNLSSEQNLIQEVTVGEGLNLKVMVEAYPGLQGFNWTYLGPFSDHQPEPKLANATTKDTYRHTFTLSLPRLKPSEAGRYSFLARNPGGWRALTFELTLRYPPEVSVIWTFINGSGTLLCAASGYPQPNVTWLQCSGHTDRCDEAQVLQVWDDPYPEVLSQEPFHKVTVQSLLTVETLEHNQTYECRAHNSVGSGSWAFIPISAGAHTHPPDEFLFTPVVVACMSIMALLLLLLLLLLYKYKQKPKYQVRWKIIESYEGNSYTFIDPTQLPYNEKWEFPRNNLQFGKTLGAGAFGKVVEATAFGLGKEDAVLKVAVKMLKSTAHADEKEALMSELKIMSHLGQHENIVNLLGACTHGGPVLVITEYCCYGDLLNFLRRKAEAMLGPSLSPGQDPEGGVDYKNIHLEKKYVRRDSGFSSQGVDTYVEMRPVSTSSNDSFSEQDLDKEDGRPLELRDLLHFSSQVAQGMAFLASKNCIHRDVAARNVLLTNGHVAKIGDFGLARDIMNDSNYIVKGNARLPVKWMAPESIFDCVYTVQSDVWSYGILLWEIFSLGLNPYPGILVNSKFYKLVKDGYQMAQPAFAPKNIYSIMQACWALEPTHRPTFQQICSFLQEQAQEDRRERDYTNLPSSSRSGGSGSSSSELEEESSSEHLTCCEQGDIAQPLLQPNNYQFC
UniProt P41240: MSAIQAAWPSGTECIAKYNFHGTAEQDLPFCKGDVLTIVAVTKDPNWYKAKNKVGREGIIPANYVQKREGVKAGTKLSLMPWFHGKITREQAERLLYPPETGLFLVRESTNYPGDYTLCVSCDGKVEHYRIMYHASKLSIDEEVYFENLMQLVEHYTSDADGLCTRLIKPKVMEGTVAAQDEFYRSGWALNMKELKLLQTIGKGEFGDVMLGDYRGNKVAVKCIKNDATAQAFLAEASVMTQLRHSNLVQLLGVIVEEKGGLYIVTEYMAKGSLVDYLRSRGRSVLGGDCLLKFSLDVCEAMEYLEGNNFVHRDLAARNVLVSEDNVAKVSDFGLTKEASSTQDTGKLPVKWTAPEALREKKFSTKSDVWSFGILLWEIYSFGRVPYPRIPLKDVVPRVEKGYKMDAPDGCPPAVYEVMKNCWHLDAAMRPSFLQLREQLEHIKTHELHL
UniProt P48730: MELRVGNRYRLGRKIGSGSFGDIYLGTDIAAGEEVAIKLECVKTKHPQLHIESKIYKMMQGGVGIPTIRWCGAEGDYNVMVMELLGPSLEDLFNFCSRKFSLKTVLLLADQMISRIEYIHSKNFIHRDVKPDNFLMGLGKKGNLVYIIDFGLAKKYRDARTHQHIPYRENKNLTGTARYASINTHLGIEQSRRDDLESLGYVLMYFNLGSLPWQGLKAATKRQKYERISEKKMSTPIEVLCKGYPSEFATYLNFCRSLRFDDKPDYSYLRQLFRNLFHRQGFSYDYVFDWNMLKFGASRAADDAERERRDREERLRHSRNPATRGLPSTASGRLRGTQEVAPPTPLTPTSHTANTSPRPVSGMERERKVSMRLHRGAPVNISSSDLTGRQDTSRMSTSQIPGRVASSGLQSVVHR
UniProt Q08345: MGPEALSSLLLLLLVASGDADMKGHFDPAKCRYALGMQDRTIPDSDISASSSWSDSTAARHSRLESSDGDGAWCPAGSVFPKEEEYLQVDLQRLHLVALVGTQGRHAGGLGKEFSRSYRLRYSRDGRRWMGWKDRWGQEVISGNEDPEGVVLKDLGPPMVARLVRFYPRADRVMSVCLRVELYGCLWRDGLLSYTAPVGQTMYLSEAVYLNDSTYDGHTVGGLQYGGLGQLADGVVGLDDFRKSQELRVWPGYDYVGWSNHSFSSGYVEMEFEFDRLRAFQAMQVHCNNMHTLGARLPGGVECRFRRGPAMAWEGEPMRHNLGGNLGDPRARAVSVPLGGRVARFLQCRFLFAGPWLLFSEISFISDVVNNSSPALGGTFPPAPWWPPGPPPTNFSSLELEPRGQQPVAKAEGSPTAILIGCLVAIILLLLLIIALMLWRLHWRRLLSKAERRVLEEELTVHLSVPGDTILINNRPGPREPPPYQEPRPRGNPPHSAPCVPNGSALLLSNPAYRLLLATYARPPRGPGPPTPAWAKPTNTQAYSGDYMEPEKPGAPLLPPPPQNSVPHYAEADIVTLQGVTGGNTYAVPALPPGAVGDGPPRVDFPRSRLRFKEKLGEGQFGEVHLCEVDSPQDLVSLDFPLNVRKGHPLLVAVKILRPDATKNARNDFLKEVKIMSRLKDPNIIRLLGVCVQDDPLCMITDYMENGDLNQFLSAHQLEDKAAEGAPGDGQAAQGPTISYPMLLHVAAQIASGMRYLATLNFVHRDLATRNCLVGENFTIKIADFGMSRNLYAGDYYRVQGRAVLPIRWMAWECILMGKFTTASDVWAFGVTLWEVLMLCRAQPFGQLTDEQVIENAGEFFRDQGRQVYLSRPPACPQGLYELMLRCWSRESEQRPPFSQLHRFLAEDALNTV

Legend:
Assay in all cases: kinase-Nluc reporter destabilization hit call (1 = scored as downregulated) (binary); higher = compound decreases kinase abundance
Settings in all cases: K562, 2-18 h
CDK7 = CDK7 (UniProt P50613)
CDK9 = CDK9 (UniProt P50750)
CSNK1A1 = CSNK1A1 (UniProt P48729)
DYRK1B = DYRK1B (UniProt Q9Y463)
DYRK2 = DYRK2 (UniProt Q92630)
CHEK2 = CHEK2 (UniProt O96017)
CSF1R = CSF1R (UniProt P07333)
CSK = CSK (UniProt P41240)
CSNK1D = CSNK1D (UniProt P48730)
DDR1 = DDR1 (UniProt Q08345)

Measured: kinase-Nluc reporter destabilization hit call

Cc1cc2ncnn2cc1Nc1ncc2c(n1)n(C1CCOCC1)c(=O)n2C
inactive: CDK7; 10 µM 0 | CDK9; 10 µM 0 | CSNK1A1; 10 µM 0 | DYRK1B; 10 µM 0 | DYRK2; 10 µM 0

C=CC(=O)Nc1cc2c(Nc3ccc(F)c(Cl)c3)ncnc2cc1OCCCN1CCOCC1 [Canertinib (dihydrochloride)]
inactive: CDK7; 2.5 µM 0 | CDK9; 2.5 µM 0 | CHEK2; 2.5 µM 0 | CSF1R; 2.5 µM 0 | CSK; 2.5 µM 0 | CSNK1A1; 2.5 µM 0 | CSNK1D; 2.5 µM 0 | DDR1; 2.5 µM 0 | DYRK1B; 2.5 µM 0 | DYRK2; 2.5 µM 0

C=CC(=O)N1CCC[C@@H](n2nc(-c3ccc(Oc4ccccc4)cc3)c3c(N)ncnc32)C1 [Ibrutinib]
inactive: CDK7; 2.5 µM 0 | CDK9; 2.5 µM 0 | CHEK2; 2.5 µM 0 | CSF1R; 2.5 µM 0 | CSK; 2.5 µM 0 | CSNK1A1; 2.5 µM 0 | CSNK1D; 2.5 µM 0 | DDR1; 2.5 µM 0 | DYRK1B; 2.5 µM 0 | DYRK2; 2.5 µM 0

O=C1NCCc2[nH]c(-c3ccncc3)cc21
inactive: CDK7; 2.5 µM 0 | CDK9; 2.5 µM 0 | CHEK2; 2.5 µM 0 | CSF1R; 2.5 µM 0 | CSK; 2.5 µM 0 | CSNK1D; 2.5 µM 0 | DDR1; 2.5 µM 0 | DYRK1B; 2.5 µM 0 | DYRK2; 2.5 µM 0

Two entries drawn at random from those above, as already listed:
C=CC(=O)N1CCC[C@@H](n2nc(-c3ccc(Oc4ccccc4)cc3)c3c(N)ncnc32)C1 [Ibrutinib]
inactive: CDK7; 2.5 µM 0 | CDK9; 2.5 µM 0 | CHEK2; 2.5 µM 0 | CSF1R; 2.5 µM 0 | CSK; 2.5 µM 0 | CSNK1A1; 2.5 µM 0 | CSNK1D; 2.5 µM 0 | DDR1; 2.5 µM 0 | DYRK1B; 2.5 µM 0 | DYRK2; 2.5 µM 0

C=CC(=O)Nc1cc2c(Nc3ccc(F)c(Cl)c3)ncnc2cc1OCCCN1CCOCC1 [Canertinib (dihydrochloride)]
inactive: CDK7; 2.5 µM 0 | CDK9; 2.5 µM 0 | CHEK2; 2.5 µM 0 | CSF1R; 2.5 µM 0 | CSK; 2.5 µM 0 | CSNK1A1; 2.5 µM 0 | CSNK1D; 2.5 µM 0 | DDR1; 2.5 µM 0 | DYRK1B; 2.5 µM 0 | DYRK2; 2.5 µM 0

(list continues)

CC1(C)CNc2cc(NC(=O)c3cccnc3NCc3ccncc3)ccc21 [Motesanib (Diphosphate)]
inactive: CDK7; 2.5 µM 0 | CDK9; 2.5 µM 0 | CHEK2; 2.5 µM 0 | CSK; 2.5 µM 0 | CSNK1A1; 2.5 µM 0 | CSNK1D; 2.5 µM 0 | DYRK1B; 2.5 µM 0 | DYRK2; 2.5 µM 0

COc1ccc(CNC(=O)Nc2ncc([N+](=O)[O-])s2)cc1
inactive: CDK7; 2.5 µM 0 | CDK9; 2.5 µM 0 | CHEK2; 2.5 µM 0 | CSF1R; 2.5 µM 0 | CSK; 2.5 µM 0 | CSNK1A1; 2.5 µM 0 | DDR1; 2.5 µM 0 | DYRK1B; 2.5 µM 0 | DYRK2; 2.5 µM 0

O=C(Nc1cccc(Nc2nccc(Nc3cccc(C(F)(F)F)c3)n2)c1)C1CC1 [Aurora kinase inhibitor-3]
inactive: CDK7; 2.5 µM 0 | CDK9; 2.5 µM 0 | CHEK2; 2.5 µM 0 | CSF1R; 2.5 µM 0 | CSK; 2.5 µM 0 | CSNK1A1; 2.5 µM 0 | CSNK1D; 2.5 µM 0 | DDR1; 2.5 µM 0 | DYRK1B; 2.5 µM 0 | DYRK2; 2.5 µM 0

COc1cc2ncnc(Nc3cccc(Br)c3)c2cc1OC
inactive: CDK7; 10 µM 0 | CDK9; 10 µM 0 | CHEK2; 10 µM 0 | CSF1R; 10 µM 0 | CSK; 10 µM 0 | CSNK1A1; 10 µM 0 | CSNK1D; 10 µM 0 | DDR1; 10 µM 0 | DYRK1B; 10 µM 0 | DYRK2; 10 µM 0

C[C@H]1Oc2cc(cnc2N)-c2c(nn(C)c2C#N)CN(C)C(=O)c2ccc(F)cc21 [Lorlatinib]
inactive: CDK7; 10 µM 0 | CDK9; 10 µM 0 | CHEK2; 10 µM 0 | CSF1R; 10 µM 0 | CSK; 10 µM 0 | CSNK1A1; 10 µM 0 | CSNK1D; 10 µM 0 | DYRK1B; 10 µM 0 | DYRK2; 10 µM 0

Cc1ccc(Nc2nccc(N(C)c3ccc4c(C)n(C)nc4c3)n2)cc1S(N)(=O)=O [Pazopanib (Hydrochloride)]
inactive: CDK7; 10 µM 0 | CDK9; 10 µM 0 | CHEK2; 10 µM 0 | CSK; 10 µM 0 | CSNK1A1; 10 µM 0 | CSNK1D; 10 µM 0 | DDR1; 10 µM 0 | DYRK1B; 10 µM 0 | DYRK2; 10 µM 0

CC1(C)CNc2cc(NC(=O)c3cccnc3NCc3ccncc3)ccc21 [Motesanib]
inactive: CDK7; 2.5 µM 0 | CDK9; 2.5 µM 0 | CHEK2; 2.5 µM 0 | CSK; 2.5 µM 0 | CSNK1A1; 2.5 µM 0 | CSNK1D; 2.5 µM 0 | DYRK1B; 2.5 µM 0 | DYRK2; 2.5 µM 0

Cc1ccc(-n2nc(C(C)(C)C)cc2NC(=O)Nc2ccc(OCCN3CCOCC3)c3ccccc23)cc1 [Doramapimod]
inactive: CDK7; 10 µM 0 | CDK9; 10 µM 0 | CHEK2; 10 µM 0 | CSK; 10 µM 0 | CSNK1A1; 10 µM 0 | CSNK1D; 10 µM 0 | DYRK1B; 10 µM 0 | DYRK2; 10 µM 0

CNC(=O)c1cc(Oc2ccc(NC(=O)Nc3ccc(Cl)c(C(F)(F)F)c3)cc2)ccn1 [Sorafenib (Tosylate)]
inactive: CDK7; 10 µM 0 | CDK9; 10 µM 0 | CHEK2; 10 µM 0 | CSK; 10 µM 0 | CSNK1A1; 10 µM 0 | CSNK1D; 10 µM 0 | DDR1; 10 µM 0 | DYRK1B; 10 µM 0 | DYRK2; 10 µM 0

C[C@@]1(C(=O)Nc2ccc(F)nc2)CCCN1c1nc(Nc2cc(C3CC3)n[nH]2)c2cccn2n1
inactive: CDK7; 10 µM 0 | CDK9; 10 µM 0 | CHEK2; 10 µM 0 | CSK; 10 µM 0 | CSNK1A1; 10 µM 0 | CSNK1D; 10 µM 0 | DYRK1B; 10 µM 0 | DYRK2; 10 µM 0

C[C@H]1CN(C2COC2)CCN1c1ccc(Nc2cc(-c3ccnc(N4CCn5c(cc6c5CC(C)(C)C6)C4=O)c3CO)cn(C)c2=O)nc1 [Fenebrutinib]
inactive: CDK7; 10 µM 0 | CDK9; 10 µM 0 | CHEK2; 10 µM 0 | CSF1R; 10 µM 0 | CSK; 10 µM 0 | CSNK1A1; 10 µM 0 | CSNK1D; 10 µM 0 | DDR1; 10 µM 0 | DYRK1B; 10 µM 0 | DYRK2; 10 µM 0

O=C(O)c1ccc(Nc2ncc3c(n2)-c2ccc(Cl)cc2C(c2c(F)cccc2F)=NC3)cc1
inactive: CDK7; 10 µM 0 | CHEK2; 10 µM 0 | CSF1R; 10 µM 0 | CSK; 10 µM 0 | CSNK1A1; 10 µM 0 | CSNK1D; 10 µM 0 | DYRK1B; 10 µM 0 | DYRK2; 10 µM 0

COc1cc(Nc2c(C#N)cnc3cc(OCCCN4CCN(C)CC4)c(OC)cc23)c(Cl)cc1Cl [Bosutinib]
inactive: CDK7; 2.5 µM 0 | CDK9; 2.5 µM 0 | CHEK2; 2.5 µM 0 | CSF1R; 2.5 µM 0 | CSK; 2.5 µM 0 | CSNK1A1; 2.5 µM 0 | CSNK1D; 2.5 µM 0 | DDR1; 2.5 µM 0 | DYRK1B; 2.5 µM 0 | DYRK2; 2.5 µM 0
